Assay: Bone powder binding in vitro
Conditions: 1 mg/ml compound, bone meal powder 10 mg/ml in PBS, 37° C., 1 h

Row | Compound | % Bone binding [%]
1 | CO[C@H]1/C=C/O[C@@]2(C)Oc3c(C)c(O)c4c(c3C2=O)C2=NC3(CCN(CC(C)C)CC3)NC2=C(NC(=O)/C(C)=C\C=C\[C@H](C)[C@H](OC(=O)CN(C)CCOC(=O)CCC(P(=O)(O)O)P(=O)(O)O)[C@@H](C)[C@@H](O)[C@@H](C)[C@H](OC(C)=O)[C@@H]1C)C4=O [Compound 36] | 99.7
2 | CO[C@H]1/C=C/O[C@@]2(C)Oc3c(C)c(O)c4c(c3C2=O)C2=NC3(CCN(CC(C)C)CC3)N(C(=O)Oc3ccc(NC(=O)CCC(P(=O)(O)O)P(=O)(O)O)cc3)C2=C(NC(=O)/C(C)=C\C=C\[C@H](C)[C@H](O)[C@@H](C)[C@@H](O)[C@@H](C)[C@H](OC(C)=O)[C@@H]1C)C4=O [Compound 28] | 99.7
3 | CCC(=O)OCOC(=O)N[C@@H](Cc1ccc(OCCCC(P(=O)(O)O)P(=O)(O)O)cc1)C(=O)N(C)CC(=O)O[C@@H]1[C@@H](C)[C@@H](O)[C@@H](C)[C@H](OC(C)=O)[C@H](C)[C@@H](OC)/C=C/O[C@@]2(C)Oc3c(C)c(O)c4c(c3C2=O)C2=NC3(CCN(CC(C)C)CC3)NC2=C(NC(=O)/C(C)=C\C=C\[C@@H]1C)C4=O.N.N [Compound 89] | 99.8
4 | CCN(CC)CC.CCN(CC)CC.CO[C@H]1/C=C/O[C@@]2(C)Oc3c(C)c(O)c4c(c3C2=O)C2=NC3(CCN(CC(C)C)CC3)N(C(=O)OCc3ccc(OC(=O)CCCC(P(=O)(O)O)P(=O)(O)O)cc3)C2=C(NC(=O)/C(C)=C\C=C\[C@H](C)[C@H](O)[C@@H](C)[C@@H](O)[C@@H](C)[C@H](OC(C)=O)[C@@H]1C)C4=O [Compound 18] | 98.4
5 | CO[C@H]1/C=C/O[C@@]2(C)Oc3c(C)c(O)c4c(c3C2=O)C2=NC3(CCN(CC(C)C)CC3)N(C(=O)OCc3cc(C)c(OC(=O)CCC(P(=O)(O)O)P(=O)(O)O)c(C)c3)C2=C(NC(=O)/C(C)=C\C=C\[C@H](C)[C@H](O)[C@@H](C)[C@@H](O)[C@@H](C)[C@H](OC(C)=O)[C@@H]1C)C4=O.N.N [Compound 19] | 99.6
6 | CCN(CC)CC.CO[C@H]1/C=C/O[C@@]2(C)Oc3c(C)c(O)c4c(c3C2=O)C2=NC3(CCN(CC(C)C)CC3)NC2=C(NC(=O)/C(C)=C\C=C\[C@H](C)[C@H](OC(=O)CN(C)C(=O)Nc2ccc(CC(P(=O)(O)O)P(=O)(O)O)cc2)[C@@H](C)[C@@H](O)[C@@H](C)[C@H](OC(C)=O)[C@@H]1C)C4=O [Compound 142b] | 98.9
7 | CCC(=O)OCOC(=O)N[C@@H](CCCCNC(=O)CCC(P(=O)(O)O)P(=O)(O)O)C(=O)N(C)CC(=O)O[C@@H]1[C@@H](C)[C@@H](O)[C@@H](C)[C@H](OC(C)=O)[C@H](C)[C@@H](OC)/C=C/O[C@@]2(C)Oc3c(C)c(O)c4c(c3C2=O)C2=NC3(CCN(CC(C)C)CC3)NC2=C(NC(=O)/C(C)=C\C=C\[C@@H]1C)C4=O.N.N [Compound 95] | 99.8
8 | CCC(=O)OCOC(=O)N[C@@H](CCC(=O)NC(P(=O)(O)O)P(=O)(O)O)C(=O)N(C)CC(=O)O[C@@H]1[C@@H](C)[C@@H](O)[C@@H](C)[C@H](OC(C)=O)[C@H](C)[C@@H](OC)/C=C/O[C@@]2(C)Oc3c(C)c(O)c4c(c3C2=O)C2=NC3(CCN(CC(C)C)CC3)NC2=C(NC(=O)/C(C)=C\C=C\[C@@H]1C)C4=O [Compound 102] | 99.8
